Earlier results, collected in patent publication US8637702B2, “Derivatives of N-hydroxybenzamide for treating HIV infections” (Italfarmaco S.p.A., priority 2009, dated 2014).

Test system: HIV-1 gene expression in the ACH-2 cell line
Details: read-out: EC50 for induction of HIV-1 gene expression, from WO 2008/097654; cited from earlier work

For O=C(CCCCCCC(=O)Nc1ccccc1)NO [SAHA], the EC50 is given as 0.632 µM.
